# Measured values published in the supplement of paper PMC9135407.
# Where “and” joins values, the source holds several entries; their conditions need not be identical. Identical values can stand only once. Counter-ions that a name gives are not always drawn. ± gives the standard deviation of the averaged measurements. The list shows a part of the results. Plates or batches differ in their baseline, so values are only roughly comparable.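 Assay uses culture-activated primary human stellate myofibroblasts; lipid droplet recovery indicates inactivation. Measured: proportion of Hoechst-counted cells over a plate-specific Bodipy cutoff, duplicate wells, DMSO and nortriptyline as per-plate negative and positive controls. A hit scores, control-normalized, above the plate's top-tenth-percentile nortriptyline wells or ranks among its three best wells. Final well concentrations not reported.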
# System: primary human hepatic stellate cells (donor 1)
# Experiment: percent Bodipy-positive cells; higher = more lipid droplet accumulation
# Details: 48 h
# Method: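 Primary lipid accumulation screen in primary human hepatic stellate cell myofibroblasts (donor 1, passage 8) in 384-well plates. 100 nL of library compound was pin-transferred into 30 µL medium in duplicate, and cells were treated for 48 h. The 'Scaled' score combines distance from plate baseline, toxicity and reproducibility penalties, and is normalised to nortriptyline (positive) and DMSO (negative) controls on each plate. A hit is defined as scaled >0.85 or among the top 3 wells per plate.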
# [1] = library stock concentration: 3.33 mM
# [2] = library stock concentration: 10 mM
# [3] = library stock concentration: 1 mM
smiles,measurement,setting,value
CO[C@H]1C[C@@H]2CC[C@@H](C)[C@@](O)(O2)C(=O)C(=O)N2CCCC[C@H]2C(=O)O[C@H]([C@H](C)C[C@@H]2CC[C@@H](OCCO)[C@H](OC)C2)CC(=O)[C@H](C)/C=C(\C)[C@@H](O)[C@@H](OC)C(=O)[C@H](C)C[C@H](C)/C=C/C=C/C=C/1C [Everolimus (RAD001)],percent Bodipy-positive cells,[1],4.79 ± 3.9%
same,percent Bodipy-positive cells,[2],17 ± 6.9%
CN(C)CCN(Cc1ccccc1)c1ccccn1,percent Bodipy-positive cells,[2],35.6 ± 5.5%
CN(C)CCN(Cc1ccccc1)c1ccccn1 [Tripelennamine citrate],percent Bodipy-positive cells,library stock concentration: 4.5 mM,28.9 ± 8.6%
CN(C)CCN(Cc1ccccc1)c1ccccn1 [Tripelennamine HCl],percent Bodipy-positive cells,[1],15.4 ± 4.3%
same,percent Bodipy-positive cells,[2],67.2 ± 2.8%
CC1CNc2c(cccc2S(=O)(=O)N[C@@H](CCCNC(=N)N)C(=O)N2CC[C@@H](C)C[C@@H]2C(=O)O)C1 (some centres not stated) [Argatroban],percent Bodipy-positive cells,[1],5.39 ± 0.84%
same,percent Bodipy-positive cells,[2],22.4 ± 18%
C=CC1=C(C)c2cc3[nH]c(cc4nc(cc5[nH]c(cc1n2)c(C)c5CCC(=O)O)C(CCC(=O)O)=C4C)c(C)c3C=C [Protoporphyrin ix],percent Bodipy-positive cells,[2],14.2 ± 2.4%
"Cc1c(C2CCN(CCc3ccccc3)CC2)noc1-c1ccc(Cl)cc1 [L-741,742 hydrochloride]",percent Bodipy-positive cells,[2],35.3 ± 3.5%
O=C(O)c1ccc(-c2ccc3cc(O)c(C45CC6CC(CC(C6)C4)C5)cc3c2)cc1,percent Bodipy-positive cells,[2],5.16 ± 1.4%
CC(C)c1ccc(NC(=O)Cn2cnc3c2c(=O)n(C)c(=O)n3C)cc1,percent Bodipy-positive cells,[1],10.4 ± 4.6%
same,percent Bodipy-positive cells,[2],11.2 ± 3.6%
C[C@H](NC(=O)/C(C#N)=C/c1cccc(Br)n1)c1ccccc1,percent Bodipy-positive cells,[2],100%
CCNC(=O)c1[nH]nc(-c2cc(Cl)c(O)cc2O)c1-c1ccc(OC)cc1,percent Bodipy-positive cells,[1],81.3 ± 4.8%
CC(C)(C)n1nc(Cc2cccc3ccccc23)c2c(N)ncnc21,percent Bodipy-positive cells,[3],7.92 ± 0.9%
CCNC(=O)Nc1ccc(-c2nc3c(c(N4CCOC[C@@H]4C)n2)CCN(C2COC2)C3)cc1,percent Bodipy-positive cells,[1],21.1 ± 1.7%
same,percent Bodipy-positive cells,[2],15.7 ± 0.52%
CCCN(CCC)S(=O)(=O)c1ccc(C(=O)O)cc1 [Probenecid],percent Bodipy-positive cells,,25.4 ± 5.5%
same,percent Bodipy-positive cells,[1],15.1 ± 1.4%
same,percent Bodipy-positive cells,library stock concentration: 7 mM,9.65 ± 0.7%
same,percent Bodipy-positive cells,[2],35.6% and 17.4%
CCCN(CCC)S(=O)(=O)c1ccc(C(=O)O)cc1,percent Bodipy-positive cells,[2],31.8 ± 8.1%
CCN(CC)C(=O)c1cccnc1,percent Bodipy-positive cells,[2],41.3 ± 4.7%
O=c1[nH]c(=S)[nH]c(-c2ccccc2)c1Cc1c(O)ccc2ccccc12 [Cambinol],percent Bodipy-positive cells,[2],25.6 ± 7.6%
"CCCC/C=C/C=C/C=C/CCCCCCCC(=O)OC [9(Z),11(E),13(E)-Octadecatrienoic Acid methyl ester]",percent Bodipy-positive cells,[3],8.75 ± 0.56%
C[C@]12CC[C@@H]3c4ccc(O)cc4CC[C@H]3[C@@H]1CC[C@@H]2O [Estradiol-17 beta],percent Bodipy-positive cells,,54.4 ± 4.8%
C[C@]12CC[C@@H]3c4ccc(O)cc4CC[C@H]3[C@@H]1CC[C@@H]2O,percent Bodipy-positive cells,[2],24.9 ± 13%
C[C@]12CC[C@@H]3c4ccc(O)cc4CC[C@H]3[C@@H]1CC[C@@H]2O [Estradiol],percent Bodipy-positive cells,[1],12.4 ± 5.5%
same,percent Bodipy-positive cells,library stock concentration: 7.3 mM,13.8% and 8.37%
same,percent Bodipy-positive cells,[2],13% and 5.39%
same,percent Bodipy-positive cells,library stock concentration: 18.4 mM,31.3 ± 0.12%
C[C@]12CC[C@@H]3c4ccc(O)cc4CC[C@H]3[C@@H]1CC[C@@H]2O [beta-Estradiol],percent Bodipy-positive cells,[2],71.8 ± 3.1%
CC(NC(=O)Cc1cc(F)cc(F)c1)C(=O)NC(C(=O)OC(C)(C)C)c1ccccc1 (configuration not stated),percent Bodipy-positive cells,[1],9.94 ± 1.1%
same,percent Bodipy-positive cells,[2],10.7 ± 1.6%
CCCCCCCCCCCCCCCCOC[C@H](COP(=O)([O-])OCC[N+]1(C)CCCC1)OC(C)=O [Pyrrolidino PAF C-16],percent Bodipy-positive cells,[3],12.7 ± 3.6%
Cc1c(NC(=O)N2CCOCC2)ccc2c1c1ccccc1n2C(C)C,percent Bodipy-positive cells,[2],17.6 ± 14%
NC(Cc1cc(I)c(Oc2cc(I)c(O)c(I)c2)c(I)c1)C(=O)O (configuration not stated) [Thyroxine],percent Bodipy-positive cells,[2],20.7 ± 1.9%
NC(Cc1cc(I)c(Oc2cc(I)c(O)c(I)c2)c(I)c1)C(=O)O (configuration not stated) [Thyroxine (L)],percent Bodipy-positive cells,,18.2 ± 0.31%
CN(C)CC/C=C1/c2ccccc2Sc2ccc(Cl)cc21 [Chlorprothixene],percent Bodipy-positive cells,[1],44.9 ± 11%
CN(C)CC/C=C1/c2ccccc2Sc2ccc(Cl)cc21 [Chlorprothixene hydrochloride],percent Bodipy-positive cells,library stock concentration: 5.7 mM,81.69 ± 0.15%
same,percent Bodipy-positive cells,[2],98.5% and 78.5%
N.N.N.N.N.N.N.N.N.N.N.N.N.N.O.O.[Cl-].[Cl-].[Cl-].[Cl-].[Cl-].[Cl-].[Ru+4].[Ru+5].[Ru+5] [Ruthenium red],percent Bodipy-positive cells,[2],13 ± 2.6%
CN1CCC(c2c(O)cc(O)c3c(=O)cc(-c4ccccc4Cl)oc23)C1CO (configuration not stated) [Riviciclib],percent Bodipy-positive cells,library stock concentration: 80 uM,24.7 ± 6.7%
same,percent Bodipy-positive cells,library stock concentration: 400 uM,48.9 ± 7.4%
same,percent Bodipy-positive cells,library stock concentration: 2 mM,32.9 ± 5.8%
same,percent Bodipy-positive cells,[2],26.2 ± 3.6%
CC(=O)[C@H]1CC[C@H]2[C@@H]3CCC4=CC(=O)CC[C@]4(C)[C@H]3CC[C@]12C [Progesterone],percent Bodipy-positive cells,,51.2 ± 4.9%
same,percent Bodipy-positive cells,[1],11.9 ± 0.86%
same,percent Bodipy-positive cells,library stock concentration: 6.4 mM,44.4% and 31%
CC(=O)[C@H]1CC[C@H]2[C@@H]3CCC4=CC(=O)CC[C@]4(C)[C@H]3CC[C@]12C,percent Bodipy-positive cells,[2],46.6 ± 6.5%
Cn1cc(CNCC2CCN(c3ncc(C(=O)NO)cn3)CC2)c2ccccc21,percent Bodipy-positive cells,[1],73.6 ± 8.9%
